Some of the results follow.
Experiments:
Assay in all cases: log2 fold change, soluble protein after heating vs DMSO (PISA); higher = thermal stabilisation; K562 cells, 10 uM, 30 min; active = over 0.2 and 3.5 SD of the protein, either way, in both replicates (recomputed)
[1] = compound: C1=CC=C(C=C1)[C@H](COC2=CC3=C(C=C2)NC(=O)N3)NC(=O)C4=CC=CN(C4=O)CC5=CC(=C(C=C5)F)F
Summary of the method: (§1)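 K562 cells at 2×10^6 cells/mL were given 10 μM compound for 30 min. Aliquots then went through 3 min of heating across 48°C-58°C, were pooled, and were extracted in PBS with 0.5% NP-40 at 4°C, and the supernatant after 21,000xg for 90 min was quantified by TMTpro 16plex LC-MS/MS with channel sums equalised. Thermal stability relative to control samples, from duplicates, is given as log2 fold change.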

Amino acid sequences for entries named in this document (tags omitted). A change or cut given only in a name is not applied to a line headed by its entry.
UniProt P31749: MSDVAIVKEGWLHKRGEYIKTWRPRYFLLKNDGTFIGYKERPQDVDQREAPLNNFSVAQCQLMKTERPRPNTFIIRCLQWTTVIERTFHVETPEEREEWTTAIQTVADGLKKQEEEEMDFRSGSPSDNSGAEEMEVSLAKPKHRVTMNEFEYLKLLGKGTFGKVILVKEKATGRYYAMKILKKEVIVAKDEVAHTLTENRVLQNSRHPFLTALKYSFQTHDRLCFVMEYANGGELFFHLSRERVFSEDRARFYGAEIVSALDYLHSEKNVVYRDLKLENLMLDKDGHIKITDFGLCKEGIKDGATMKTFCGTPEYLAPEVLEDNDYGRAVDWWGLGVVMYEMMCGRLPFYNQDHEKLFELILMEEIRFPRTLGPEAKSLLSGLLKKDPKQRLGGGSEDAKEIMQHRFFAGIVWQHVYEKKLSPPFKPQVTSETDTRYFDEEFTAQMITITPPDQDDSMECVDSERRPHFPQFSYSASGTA
UniProt Q8N302: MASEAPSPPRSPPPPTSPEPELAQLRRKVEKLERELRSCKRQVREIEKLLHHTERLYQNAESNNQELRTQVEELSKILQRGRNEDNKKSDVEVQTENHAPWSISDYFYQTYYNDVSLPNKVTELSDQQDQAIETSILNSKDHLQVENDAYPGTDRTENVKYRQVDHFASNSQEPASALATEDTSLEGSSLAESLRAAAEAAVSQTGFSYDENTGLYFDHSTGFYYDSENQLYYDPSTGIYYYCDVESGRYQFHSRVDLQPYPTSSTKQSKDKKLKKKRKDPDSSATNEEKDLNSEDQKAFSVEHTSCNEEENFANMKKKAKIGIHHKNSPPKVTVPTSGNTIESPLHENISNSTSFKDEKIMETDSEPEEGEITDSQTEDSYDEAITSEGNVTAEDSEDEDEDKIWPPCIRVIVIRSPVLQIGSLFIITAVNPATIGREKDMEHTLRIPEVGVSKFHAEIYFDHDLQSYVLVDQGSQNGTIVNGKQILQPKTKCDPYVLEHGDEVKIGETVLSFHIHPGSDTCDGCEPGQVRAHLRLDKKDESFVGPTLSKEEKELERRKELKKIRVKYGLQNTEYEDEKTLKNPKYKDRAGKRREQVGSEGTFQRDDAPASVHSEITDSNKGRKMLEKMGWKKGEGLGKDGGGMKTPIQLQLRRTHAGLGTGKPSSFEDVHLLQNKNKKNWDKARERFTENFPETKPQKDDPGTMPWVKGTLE
UniProt Q02952: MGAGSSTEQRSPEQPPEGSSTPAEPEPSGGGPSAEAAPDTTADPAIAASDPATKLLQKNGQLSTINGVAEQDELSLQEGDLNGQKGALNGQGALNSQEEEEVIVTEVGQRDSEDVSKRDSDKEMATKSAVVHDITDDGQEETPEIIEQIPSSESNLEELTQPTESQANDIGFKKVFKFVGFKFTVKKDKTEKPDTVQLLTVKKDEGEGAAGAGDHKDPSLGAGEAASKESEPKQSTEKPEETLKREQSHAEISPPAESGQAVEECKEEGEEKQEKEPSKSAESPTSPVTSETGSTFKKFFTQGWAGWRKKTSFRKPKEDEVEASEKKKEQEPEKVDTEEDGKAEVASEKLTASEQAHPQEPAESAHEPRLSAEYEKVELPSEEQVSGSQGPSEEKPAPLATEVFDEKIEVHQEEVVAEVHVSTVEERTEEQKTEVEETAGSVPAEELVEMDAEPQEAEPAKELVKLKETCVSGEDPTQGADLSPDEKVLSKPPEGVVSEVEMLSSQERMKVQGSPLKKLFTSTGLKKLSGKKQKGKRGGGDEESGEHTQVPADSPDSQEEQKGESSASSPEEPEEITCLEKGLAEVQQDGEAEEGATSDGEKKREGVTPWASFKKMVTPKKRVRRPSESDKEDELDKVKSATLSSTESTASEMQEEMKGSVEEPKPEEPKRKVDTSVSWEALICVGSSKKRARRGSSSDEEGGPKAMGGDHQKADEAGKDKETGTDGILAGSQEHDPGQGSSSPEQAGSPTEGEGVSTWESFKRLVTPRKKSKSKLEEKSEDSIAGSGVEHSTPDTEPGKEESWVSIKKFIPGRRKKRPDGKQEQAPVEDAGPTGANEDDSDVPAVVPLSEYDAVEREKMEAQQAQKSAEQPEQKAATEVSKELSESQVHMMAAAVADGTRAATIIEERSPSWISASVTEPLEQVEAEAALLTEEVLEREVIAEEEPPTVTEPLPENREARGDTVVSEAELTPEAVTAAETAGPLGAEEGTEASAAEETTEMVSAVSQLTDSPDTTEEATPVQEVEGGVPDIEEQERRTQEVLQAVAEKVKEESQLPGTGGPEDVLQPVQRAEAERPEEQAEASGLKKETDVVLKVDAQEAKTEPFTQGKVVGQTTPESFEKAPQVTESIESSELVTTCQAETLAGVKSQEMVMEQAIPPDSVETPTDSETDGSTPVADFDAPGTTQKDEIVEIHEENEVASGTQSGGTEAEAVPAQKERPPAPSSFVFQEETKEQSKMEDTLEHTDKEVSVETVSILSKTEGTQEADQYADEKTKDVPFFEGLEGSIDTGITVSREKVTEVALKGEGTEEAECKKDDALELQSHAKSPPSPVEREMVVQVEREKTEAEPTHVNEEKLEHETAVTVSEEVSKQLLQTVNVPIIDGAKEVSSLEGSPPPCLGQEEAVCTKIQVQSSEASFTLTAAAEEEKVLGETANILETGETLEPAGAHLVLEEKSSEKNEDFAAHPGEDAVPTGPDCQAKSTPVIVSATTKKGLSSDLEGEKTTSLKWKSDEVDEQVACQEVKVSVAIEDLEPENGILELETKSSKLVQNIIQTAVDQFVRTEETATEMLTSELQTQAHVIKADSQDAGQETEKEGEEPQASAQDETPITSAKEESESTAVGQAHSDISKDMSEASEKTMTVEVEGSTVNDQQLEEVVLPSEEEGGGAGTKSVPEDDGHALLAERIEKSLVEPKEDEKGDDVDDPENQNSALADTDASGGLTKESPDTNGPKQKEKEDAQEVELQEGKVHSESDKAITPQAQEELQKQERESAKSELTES
UniProt Q9NX46: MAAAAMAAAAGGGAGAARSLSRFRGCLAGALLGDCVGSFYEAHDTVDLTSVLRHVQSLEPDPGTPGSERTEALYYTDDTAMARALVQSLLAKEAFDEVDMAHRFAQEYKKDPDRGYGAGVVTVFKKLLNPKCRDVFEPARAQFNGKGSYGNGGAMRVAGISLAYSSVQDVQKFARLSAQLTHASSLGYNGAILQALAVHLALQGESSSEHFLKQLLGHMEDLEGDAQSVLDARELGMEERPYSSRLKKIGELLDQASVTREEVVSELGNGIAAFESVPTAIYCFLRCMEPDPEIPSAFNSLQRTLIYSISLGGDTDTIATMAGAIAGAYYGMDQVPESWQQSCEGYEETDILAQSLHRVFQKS
UniProt P14550: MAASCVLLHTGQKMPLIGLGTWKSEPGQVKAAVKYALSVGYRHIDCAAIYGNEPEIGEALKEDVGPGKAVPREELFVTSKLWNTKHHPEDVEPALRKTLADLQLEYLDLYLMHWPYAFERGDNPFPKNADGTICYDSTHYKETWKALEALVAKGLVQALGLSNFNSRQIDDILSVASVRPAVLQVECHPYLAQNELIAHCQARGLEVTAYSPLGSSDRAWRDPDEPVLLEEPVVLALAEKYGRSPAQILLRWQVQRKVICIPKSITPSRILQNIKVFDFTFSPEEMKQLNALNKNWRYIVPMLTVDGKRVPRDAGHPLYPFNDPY
UniProt Q9UKV8, whole entry, looked up: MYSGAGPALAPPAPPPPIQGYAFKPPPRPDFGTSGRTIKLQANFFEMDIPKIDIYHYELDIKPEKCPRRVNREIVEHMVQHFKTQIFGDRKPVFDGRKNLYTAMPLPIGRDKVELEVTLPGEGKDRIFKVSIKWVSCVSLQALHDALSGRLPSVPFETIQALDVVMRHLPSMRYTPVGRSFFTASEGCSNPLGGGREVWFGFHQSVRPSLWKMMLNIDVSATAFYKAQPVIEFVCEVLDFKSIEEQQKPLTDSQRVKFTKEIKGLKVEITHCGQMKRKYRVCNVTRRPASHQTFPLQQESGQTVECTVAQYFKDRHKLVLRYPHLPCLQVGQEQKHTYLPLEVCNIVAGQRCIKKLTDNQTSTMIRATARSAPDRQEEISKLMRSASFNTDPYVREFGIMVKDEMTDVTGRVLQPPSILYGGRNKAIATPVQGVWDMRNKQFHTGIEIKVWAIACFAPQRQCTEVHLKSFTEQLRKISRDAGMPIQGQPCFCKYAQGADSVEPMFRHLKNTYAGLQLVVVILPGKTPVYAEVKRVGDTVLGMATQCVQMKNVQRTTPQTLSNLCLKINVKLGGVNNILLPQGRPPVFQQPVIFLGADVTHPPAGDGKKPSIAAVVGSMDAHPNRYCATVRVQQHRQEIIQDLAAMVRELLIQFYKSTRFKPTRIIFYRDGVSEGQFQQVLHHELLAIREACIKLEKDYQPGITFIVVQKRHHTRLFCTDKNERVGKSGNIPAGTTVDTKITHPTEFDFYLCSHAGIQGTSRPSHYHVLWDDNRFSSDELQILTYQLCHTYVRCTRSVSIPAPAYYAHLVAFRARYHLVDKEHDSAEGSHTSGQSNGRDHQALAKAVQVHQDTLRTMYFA
UniProt P35612: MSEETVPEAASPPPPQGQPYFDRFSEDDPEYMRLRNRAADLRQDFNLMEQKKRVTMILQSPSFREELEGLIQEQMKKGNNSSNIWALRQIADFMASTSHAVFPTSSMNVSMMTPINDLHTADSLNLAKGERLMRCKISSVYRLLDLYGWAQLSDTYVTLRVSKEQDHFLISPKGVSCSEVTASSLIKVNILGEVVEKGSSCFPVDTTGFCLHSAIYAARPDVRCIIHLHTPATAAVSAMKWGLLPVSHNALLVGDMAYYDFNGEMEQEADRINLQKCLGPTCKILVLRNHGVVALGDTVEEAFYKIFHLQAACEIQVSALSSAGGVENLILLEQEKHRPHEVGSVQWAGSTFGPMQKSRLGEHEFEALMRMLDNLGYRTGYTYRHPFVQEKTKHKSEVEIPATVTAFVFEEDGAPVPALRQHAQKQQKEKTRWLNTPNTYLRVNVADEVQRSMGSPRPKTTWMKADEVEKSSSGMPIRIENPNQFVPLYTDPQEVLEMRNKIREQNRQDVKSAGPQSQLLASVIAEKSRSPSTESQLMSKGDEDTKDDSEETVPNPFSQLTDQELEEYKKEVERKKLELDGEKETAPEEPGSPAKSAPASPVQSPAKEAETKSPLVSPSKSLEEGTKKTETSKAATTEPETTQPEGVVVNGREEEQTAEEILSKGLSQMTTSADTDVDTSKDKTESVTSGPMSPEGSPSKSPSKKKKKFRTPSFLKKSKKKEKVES
UniProt Q13155: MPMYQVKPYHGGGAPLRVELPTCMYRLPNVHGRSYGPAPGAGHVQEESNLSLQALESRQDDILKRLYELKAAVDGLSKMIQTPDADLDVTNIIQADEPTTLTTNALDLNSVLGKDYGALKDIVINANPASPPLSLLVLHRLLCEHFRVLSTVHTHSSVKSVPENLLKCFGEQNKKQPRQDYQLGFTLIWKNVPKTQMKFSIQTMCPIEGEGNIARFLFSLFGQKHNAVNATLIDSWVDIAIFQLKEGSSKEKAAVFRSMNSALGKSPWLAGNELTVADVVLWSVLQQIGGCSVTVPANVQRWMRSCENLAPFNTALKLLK
UniProt Q16186: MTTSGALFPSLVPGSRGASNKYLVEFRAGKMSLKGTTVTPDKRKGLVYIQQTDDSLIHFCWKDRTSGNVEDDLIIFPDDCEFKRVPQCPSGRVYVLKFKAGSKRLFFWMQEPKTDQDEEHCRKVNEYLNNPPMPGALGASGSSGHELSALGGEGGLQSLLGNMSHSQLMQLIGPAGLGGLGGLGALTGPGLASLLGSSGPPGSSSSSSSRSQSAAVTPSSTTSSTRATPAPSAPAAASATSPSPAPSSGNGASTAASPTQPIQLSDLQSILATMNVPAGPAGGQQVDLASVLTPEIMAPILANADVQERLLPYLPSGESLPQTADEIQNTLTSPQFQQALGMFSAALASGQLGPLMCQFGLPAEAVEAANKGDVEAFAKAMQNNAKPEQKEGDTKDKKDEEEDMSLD
UniProt P52594: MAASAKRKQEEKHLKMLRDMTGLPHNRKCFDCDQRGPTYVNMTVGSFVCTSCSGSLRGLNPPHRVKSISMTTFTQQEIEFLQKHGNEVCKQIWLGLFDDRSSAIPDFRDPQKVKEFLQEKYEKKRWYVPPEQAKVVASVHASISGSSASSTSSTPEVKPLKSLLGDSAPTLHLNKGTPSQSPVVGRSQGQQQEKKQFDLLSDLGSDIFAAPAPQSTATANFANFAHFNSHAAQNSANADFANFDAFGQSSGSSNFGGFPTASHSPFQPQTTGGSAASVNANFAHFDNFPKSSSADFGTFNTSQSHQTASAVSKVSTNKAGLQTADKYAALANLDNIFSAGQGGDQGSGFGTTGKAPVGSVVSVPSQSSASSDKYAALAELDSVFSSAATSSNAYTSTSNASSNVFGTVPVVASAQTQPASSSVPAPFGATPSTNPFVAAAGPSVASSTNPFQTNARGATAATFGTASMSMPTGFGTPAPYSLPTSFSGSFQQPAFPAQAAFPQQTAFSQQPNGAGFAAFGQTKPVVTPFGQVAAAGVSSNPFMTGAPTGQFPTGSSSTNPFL

[2] = compound: CC1=C(SC2=C1C(=N[C@H](C3=NN=C(N32)C)CC(=O)N)C4=CC=C(C=C4)Cl)C
Summary of the method: as §1

[3] = compound: CC1=C2C(=CC=C1)N=C(N(C2=O)C3=CC=CC=C3C)CN4C=NC5=C(N=CN=C54)N
Summary of the method: as §1

[4] = compound: Cc1sc2c(c1C)C(c1ccc(Cl)cc1)=N[C@@H](CC(=O)OC(C)(C)C)c1nnc(C)n1-2
Summary of the method: as §1

[5] = compound: c1ccc([C@@H]2C[C@H]2NC2CCNCC2)cc1
Summary of the method: as §1

Measured: log2 fold change

AKT1 (UniProt P31749)
inactive: [1] -0.068 | [2] 0.018 | [3] 0.034 | [4] 0.042 | [5] -0.072

AGGF1 (UniProt Q8N302)
inactive: [1] -0.035

ALKBH3 (UniProt Q96Q83)
inactive: [1] -0.024 | [2] 0.046 | [3] 0.058 | [4] 0.02 | [5] -0.003

AGRN (UniProt O00468)
inactive: [1] 0.06 | [2] 0.154 | [3] 0.043 | [4] -0.038 | [5] 0.028

ALG1 (UniProt Q9BT22)
inactive: [1] -0.021 | [2] 0.092 | [3] 0.06 | [4] -0.083 | [5] -0.044

AKAP12 (UniProt Q02952)
inactive: [1] 0.078 | [2] 0.028 | [3] -0.005 | [4] 0.028 | [5] 0.021

ADPRHL2 (UniProt Q9NX46)
inactive: [1] -0.09 | [2] 0.08 | [3] 0.034 | [4] -0.057 | [5] -0.087

AKR1A1 (UniProt P14550)
inactive: [1] -0.023 | [2] 0.05 | [3] 0.039 | [4] -0.007 | [5] -0.04

AIMP1 isoform 2 (UniProt Q12904)
inactive: [1] 0.029 | [2] -0.118 | [3] -0.114 | [4] 0.293 | [5] -0.008

ALMS1 (UniProt Q8TCU4)
inactive: [1] 0.028

AHSA1 (UniProt O95433)
inactive: [1] -0.035 | [2] 0.063 | [3] 0.015 | [4] -0.024 | [5] -0.003

AGO2 (UniProt Q9UKV8)
inactive: [1] 0.052 | [2] -0.032 | [3] -0.016 | [4] 0.04 | [5] 0.057

ADD2 isoform 9 (UniProt P35612)
inactive: [1] 0.02

ALDH1L2 (UniProt Q3SY69)
inactive: [1] -0.132 | [2] 0.098 | [3] 0 | [4] 0.02 | [5] -0.031

ADD2 (UniProt P35612)
inactive: [1] 0.005 | [2] 0.044 | [3] 0.014 | [4] -0.024 | [5] 0.016

AFF4 (UniProt Q9UHB7)
inactive: [1] -0.182

AHCYL2 (UniProt Q96HN2)
inactive: [1] -0.005 | [2] -0.004 | [3] 0.013 | [4] -0.03 | [5] -0.026

AIMP2 (UniProt Q13155)
inactive: [1] 0.037 | [2] -0.154 | [3] -0.124 | [4] 0.287 | [5] -0.005

ADRM1 (UniProt Q16186)
inactive: [1] 0.007 | [2] -0.062 | [3] -0.001 | [4] -0.019 | [5] -0.01

ADK (UniProt P55263)
inactive: [1] 0.026 | [2] 0.036 | [3] 0.154 | [4] -0.008 | [5] -0.057

AGO4 (UniProt Q9HCK5)
inactive: [1] 0.028 | [2] -0.127 | [3] 0.041 | [4] 0.006 | [5] -0.042

ADD1 isoform 3 (UniProt P35611)
inactive: [1] 0.01 | [2] -0.003 | [3] 0 | [4] -0.014 | [5] 0.024

Looked up one by one from above, 2 records:
ADD1 isoform 3 (UniProt P35611)
inactive: [1] 0.01 | [2] -0.003 | [3] 0 | [4] -0.014 | [5] 0.024

ADD2 (UniProt P35612)
inactive: [1] 0.005 | [2] 0.044 | [3] 0.014 | [4] -0.024 | [5] 0.016

(further entries)

AKTIP isoform 2 (UniProt Q9H8T0)
inactive: [1] -0.274

AGFG1 isoform 4 (UniProt P52594)
inactive: [1] 0.021 | [2] 0.05 | [3] 0.148 | [4] -0.02 | [5] -0.017

AKR1D1 (UniProt P51857)
inactive: [1] 0.186 | [2] -0.049 | [3] 0.13 | [4] 0.127 | [5] -0.045

AGPAT3 isoform 3 (UniProt Q9NRZ7)
inactive: [1] -0.012 | [2] 0.064 | [3] 0.021 | [4] -0.048 | [5] -0.024

ADPRM (UniProt Q3LIE5)
inactive: [1] -0.005

AHCTF1 isoform 2 (UniProt Q8WYP5)
inactive: [1] 0.001 | [2] -0.025 | [3] -0.213 | [4] 0.009 | [5] 0.076

From the supplement of paper PMC10849652
